In the supplement of paper PMC10849652:
The list shows a part of the results.

The chains behind the UniProt entries cited, without tags or fusion partners. Where a name states a change or a piece, a line headed by the entry shows the natural chain unless it says otherwise.
UniProt P56134: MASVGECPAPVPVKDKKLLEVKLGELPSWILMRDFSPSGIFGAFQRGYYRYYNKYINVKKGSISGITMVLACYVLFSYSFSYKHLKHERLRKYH
UniProt Q676U5: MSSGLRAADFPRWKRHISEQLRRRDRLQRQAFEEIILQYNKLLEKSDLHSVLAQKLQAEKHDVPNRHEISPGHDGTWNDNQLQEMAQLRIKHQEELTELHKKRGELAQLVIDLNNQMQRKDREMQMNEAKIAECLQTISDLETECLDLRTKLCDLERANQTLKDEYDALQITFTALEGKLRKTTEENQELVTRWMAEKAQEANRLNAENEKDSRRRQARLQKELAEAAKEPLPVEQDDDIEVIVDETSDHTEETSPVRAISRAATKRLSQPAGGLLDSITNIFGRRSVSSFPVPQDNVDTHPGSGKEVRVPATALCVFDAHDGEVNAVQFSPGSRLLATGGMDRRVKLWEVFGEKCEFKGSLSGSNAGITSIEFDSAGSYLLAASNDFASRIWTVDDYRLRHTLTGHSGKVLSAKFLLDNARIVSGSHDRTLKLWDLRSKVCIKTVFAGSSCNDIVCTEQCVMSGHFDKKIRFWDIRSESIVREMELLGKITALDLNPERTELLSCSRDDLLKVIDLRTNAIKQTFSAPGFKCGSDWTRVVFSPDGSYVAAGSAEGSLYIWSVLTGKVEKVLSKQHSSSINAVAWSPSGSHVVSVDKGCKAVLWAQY
UniProt O95671: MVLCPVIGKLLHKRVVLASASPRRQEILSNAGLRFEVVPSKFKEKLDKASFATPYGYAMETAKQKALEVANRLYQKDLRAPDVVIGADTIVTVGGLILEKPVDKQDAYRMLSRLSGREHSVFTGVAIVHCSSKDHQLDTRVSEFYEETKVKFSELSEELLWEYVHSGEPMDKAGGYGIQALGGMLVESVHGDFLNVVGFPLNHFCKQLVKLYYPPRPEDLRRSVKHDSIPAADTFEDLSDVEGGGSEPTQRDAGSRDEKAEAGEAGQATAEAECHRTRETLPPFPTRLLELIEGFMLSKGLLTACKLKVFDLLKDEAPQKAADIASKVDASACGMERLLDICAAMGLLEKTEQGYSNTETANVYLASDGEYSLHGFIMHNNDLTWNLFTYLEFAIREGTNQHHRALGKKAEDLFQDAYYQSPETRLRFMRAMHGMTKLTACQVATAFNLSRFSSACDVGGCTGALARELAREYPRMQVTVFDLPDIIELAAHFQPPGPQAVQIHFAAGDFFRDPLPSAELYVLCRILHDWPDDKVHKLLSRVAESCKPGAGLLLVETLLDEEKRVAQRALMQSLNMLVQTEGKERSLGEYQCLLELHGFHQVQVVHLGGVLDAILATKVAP
UniProt Q8NB49: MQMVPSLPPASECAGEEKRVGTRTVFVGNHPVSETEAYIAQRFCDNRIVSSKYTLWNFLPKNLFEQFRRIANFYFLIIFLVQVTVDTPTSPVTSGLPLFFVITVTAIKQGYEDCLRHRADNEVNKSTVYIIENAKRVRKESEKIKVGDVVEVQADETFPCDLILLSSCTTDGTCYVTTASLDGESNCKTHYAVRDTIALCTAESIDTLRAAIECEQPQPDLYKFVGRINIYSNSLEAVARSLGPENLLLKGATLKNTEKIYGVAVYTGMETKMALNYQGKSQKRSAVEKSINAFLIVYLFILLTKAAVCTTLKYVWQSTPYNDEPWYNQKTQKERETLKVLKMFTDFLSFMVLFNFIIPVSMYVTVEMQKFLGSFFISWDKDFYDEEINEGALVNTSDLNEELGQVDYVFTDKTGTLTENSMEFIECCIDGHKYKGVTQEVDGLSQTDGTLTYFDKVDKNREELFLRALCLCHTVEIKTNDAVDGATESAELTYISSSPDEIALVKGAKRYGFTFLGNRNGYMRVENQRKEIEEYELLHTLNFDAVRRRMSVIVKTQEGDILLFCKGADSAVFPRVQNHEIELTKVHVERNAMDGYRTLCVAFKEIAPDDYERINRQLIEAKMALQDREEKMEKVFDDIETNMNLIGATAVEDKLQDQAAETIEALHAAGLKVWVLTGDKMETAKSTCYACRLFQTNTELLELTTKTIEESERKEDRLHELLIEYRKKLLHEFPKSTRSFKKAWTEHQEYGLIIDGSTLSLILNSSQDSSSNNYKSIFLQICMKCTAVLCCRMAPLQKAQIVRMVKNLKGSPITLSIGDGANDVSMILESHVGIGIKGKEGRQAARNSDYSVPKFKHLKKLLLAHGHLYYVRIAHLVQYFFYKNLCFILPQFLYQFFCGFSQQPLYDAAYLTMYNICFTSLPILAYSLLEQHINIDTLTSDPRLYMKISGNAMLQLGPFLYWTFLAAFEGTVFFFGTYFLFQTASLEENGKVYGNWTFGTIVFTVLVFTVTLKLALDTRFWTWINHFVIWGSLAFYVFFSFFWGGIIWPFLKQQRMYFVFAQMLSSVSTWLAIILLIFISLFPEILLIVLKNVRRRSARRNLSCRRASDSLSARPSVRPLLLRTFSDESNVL
UniProt P49407: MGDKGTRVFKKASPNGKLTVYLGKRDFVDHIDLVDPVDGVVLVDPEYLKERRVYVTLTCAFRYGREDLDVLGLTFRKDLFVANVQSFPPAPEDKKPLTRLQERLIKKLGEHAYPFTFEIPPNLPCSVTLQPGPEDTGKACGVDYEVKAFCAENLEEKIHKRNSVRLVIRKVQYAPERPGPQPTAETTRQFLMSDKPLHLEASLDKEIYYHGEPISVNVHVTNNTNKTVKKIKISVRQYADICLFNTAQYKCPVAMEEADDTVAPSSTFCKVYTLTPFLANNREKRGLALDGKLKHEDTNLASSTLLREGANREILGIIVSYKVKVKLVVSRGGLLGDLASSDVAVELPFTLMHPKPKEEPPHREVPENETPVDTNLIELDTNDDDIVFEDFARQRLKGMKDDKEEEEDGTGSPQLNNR
UniProt P15336: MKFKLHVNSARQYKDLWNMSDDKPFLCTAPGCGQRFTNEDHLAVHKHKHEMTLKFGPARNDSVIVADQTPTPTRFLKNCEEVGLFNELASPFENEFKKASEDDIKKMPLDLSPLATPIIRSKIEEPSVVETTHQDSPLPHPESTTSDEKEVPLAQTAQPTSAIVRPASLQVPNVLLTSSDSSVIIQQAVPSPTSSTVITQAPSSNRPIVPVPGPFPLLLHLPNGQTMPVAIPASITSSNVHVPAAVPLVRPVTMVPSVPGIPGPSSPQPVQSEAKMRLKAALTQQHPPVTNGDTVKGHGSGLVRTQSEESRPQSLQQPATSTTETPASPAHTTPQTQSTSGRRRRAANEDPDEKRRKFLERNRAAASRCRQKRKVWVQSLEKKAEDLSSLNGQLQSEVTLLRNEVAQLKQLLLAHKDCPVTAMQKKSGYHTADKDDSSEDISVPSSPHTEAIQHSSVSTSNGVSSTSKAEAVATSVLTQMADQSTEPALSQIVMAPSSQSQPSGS
UniProt O43681: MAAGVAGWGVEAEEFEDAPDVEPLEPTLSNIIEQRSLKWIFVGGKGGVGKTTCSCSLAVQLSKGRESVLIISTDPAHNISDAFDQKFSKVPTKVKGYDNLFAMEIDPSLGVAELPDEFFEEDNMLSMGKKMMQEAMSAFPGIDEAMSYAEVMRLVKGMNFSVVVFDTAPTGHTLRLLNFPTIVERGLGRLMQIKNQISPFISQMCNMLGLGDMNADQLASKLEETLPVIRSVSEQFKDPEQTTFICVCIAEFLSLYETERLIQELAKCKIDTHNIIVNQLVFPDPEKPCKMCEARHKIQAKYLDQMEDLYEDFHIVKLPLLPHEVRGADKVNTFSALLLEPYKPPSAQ
UniProt Q9H993: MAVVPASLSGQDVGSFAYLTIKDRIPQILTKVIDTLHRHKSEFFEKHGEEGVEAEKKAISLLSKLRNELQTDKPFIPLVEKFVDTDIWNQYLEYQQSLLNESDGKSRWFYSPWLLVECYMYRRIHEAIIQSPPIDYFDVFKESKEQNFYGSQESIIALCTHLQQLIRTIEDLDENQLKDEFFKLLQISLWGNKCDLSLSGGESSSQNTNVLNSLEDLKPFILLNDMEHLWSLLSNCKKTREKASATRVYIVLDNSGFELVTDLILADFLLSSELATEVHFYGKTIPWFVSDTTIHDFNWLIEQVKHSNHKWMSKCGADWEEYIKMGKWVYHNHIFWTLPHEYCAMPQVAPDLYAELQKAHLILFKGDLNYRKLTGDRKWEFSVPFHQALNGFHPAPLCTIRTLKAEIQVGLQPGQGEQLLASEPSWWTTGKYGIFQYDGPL
UniProt Q9NXU5: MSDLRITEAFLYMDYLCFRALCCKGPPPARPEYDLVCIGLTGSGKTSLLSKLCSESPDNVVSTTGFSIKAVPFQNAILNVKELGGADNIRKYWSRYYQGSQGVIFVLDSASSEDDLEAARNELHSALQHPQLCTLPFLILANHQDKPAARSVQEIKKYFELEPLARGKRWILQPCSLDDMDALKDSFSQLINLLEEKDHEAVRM
UniProt Q5TC12: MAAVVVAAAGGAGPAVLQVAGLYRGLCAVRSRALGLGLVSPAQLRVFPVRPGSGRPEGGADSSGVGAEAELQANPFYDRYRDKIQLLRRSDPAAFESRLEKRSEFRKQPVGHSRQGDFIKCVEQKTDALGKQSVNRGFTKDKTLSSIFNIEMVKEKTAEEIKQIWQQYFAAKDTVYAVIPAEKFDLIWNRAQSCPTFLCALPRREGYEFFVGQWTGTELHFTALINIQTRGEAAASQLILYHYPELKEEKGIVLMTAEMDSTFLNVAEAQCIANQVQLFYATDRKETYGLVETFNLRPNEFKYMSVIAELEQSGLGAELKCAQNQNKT
UniProt P36542: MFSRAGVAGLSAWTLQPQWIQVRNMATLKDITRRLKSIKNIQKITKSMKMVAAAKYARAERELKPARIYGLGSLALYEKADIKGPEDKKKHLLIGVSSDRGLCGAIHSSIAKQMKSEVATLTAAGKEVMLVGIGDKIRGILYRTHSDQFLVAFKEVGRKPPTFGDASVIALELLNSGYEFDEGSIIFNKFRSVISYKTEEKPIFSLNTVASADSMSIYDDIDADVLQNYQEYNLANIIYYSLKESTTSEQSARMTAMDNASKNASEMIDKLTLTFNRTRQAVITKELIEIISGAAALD
UniProt Q9BZE9, whole entry, looked up: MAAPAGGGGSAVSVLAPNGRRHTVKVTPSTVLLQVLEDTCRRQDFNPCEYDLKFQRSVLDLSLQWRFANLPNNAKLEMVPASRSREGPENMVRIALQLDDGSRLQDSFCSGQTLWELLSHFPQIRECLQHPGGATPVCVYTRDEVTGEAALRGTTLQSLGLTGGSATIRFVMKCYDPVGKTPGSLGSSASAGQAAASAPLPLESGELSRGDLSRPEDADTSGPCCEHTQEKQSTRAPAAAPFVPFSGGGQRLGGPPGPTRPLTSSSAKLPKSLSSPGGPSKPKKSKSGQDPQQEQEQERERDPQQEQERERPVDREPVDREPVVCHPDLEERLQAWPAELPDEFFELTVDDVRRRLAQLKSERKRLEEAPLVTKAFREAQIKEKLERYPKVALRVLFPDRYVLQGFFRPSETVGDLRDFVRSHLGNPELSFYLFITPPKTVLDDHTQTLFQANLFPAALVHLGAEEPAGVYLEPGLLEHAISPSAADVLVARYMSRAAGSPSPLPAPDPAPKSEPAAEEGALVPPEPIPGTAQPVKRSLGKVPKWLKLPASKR
UniProt Q96BM9: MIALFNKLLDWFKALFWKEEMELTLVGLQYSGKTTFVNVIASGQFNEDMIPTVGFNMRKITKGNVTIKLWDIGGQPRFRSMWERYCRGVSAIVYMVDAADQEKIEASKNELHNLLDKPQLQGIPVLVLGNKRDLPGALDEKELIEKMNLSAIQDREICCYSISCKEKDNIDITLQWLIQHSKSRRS
UniProt P56378: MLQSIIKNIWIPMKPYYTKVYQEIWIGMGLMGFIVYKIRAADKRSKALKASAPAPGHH
UniProt Q9NVJ2: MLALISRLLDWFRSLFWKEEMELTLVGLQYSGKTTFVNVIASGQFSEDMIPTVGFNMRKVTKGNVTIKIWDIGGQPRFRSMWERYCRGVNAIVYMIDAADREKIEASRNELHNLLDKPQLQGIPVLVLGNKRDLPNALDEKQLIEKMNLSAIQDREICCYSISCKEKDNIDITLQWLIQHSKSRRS

Columns and labels:
Assay in all cases: log2 fold change, soluble protein after heating vs DMSO (PISA); higher = thermal stabilisation; K562 cells, 10 uM, 30 min; active = over 0.2 and 3.5 SD of the protein, either way, in both replicates (recomputed)
[1] = compound: CC[C@@H]1C(=O)N(C)c2cnc(Nc3ccc(C(=O)NC4CCN(C)CC4)cc3OC)nc2N1C1CCCC1
Procedure, shortened: (§1)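 K562 cells at 2×10^6 cells/mL were exposed to 10 μM compound for 30 min, then aliquots were heated for 3 min across 48°C-58°C, pooled, and extracted in PBS containing 0.5% NP-40 at 4°C. The supernatant after 21,000xg for 90 min was taken as soluble protein and measured by TMTpro 16plex LC-MS/MS with channel sums equalised. Thermal stability is reported relative to control samples, with values from duplicates. Fold changes are given on a log2 scale.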

volasertib = compound: CC[C@@H]1C(=O)N(C)c2cnc(Nc3ccc(C(=O)N[C@H]4CC[C@H](N5CCN(CC6CC6)CC5)CC4)cc3OC)nc2N1C(C)C [volasertib]
Procedure, shortened: as §1

[2] = compound: CC[C@H](C)N1C=C(C2=C(C=C(C=C21)C3=CN=C(C=C3)N4CCNCC4)C(=O)NCC5=C(C=C(NC5=O)C)C)C
Procedure, shortened: as §1

epoxomicin = compound: CC[C@H](C)[C@@H](C(=O)N[C@@H]([C@@H](C)O)C(=O)N[C@@H](CC(C)C)C(=O)[C@]1(CO1)C)NC(=O)[C@H]([C@@H](C)CC)N(C)C(=O)C [epoxomicin]
Procedure, shortened: as §1

[3] = compound: CCn1c(C(=O)N(C2CC2)C2CC2)cc2c3c(ncn3C)c(Nc3cc(C)n(C)n3)nc21
Procedure, shortened: as §1

[4] = compound: CCn1cc(-c2ccnc3[nH]c(-c4cccc(CN(C)C)c4)cc23)c(-c2ccc(NC(=O)N(C)C)cc2)n1
Procedure, shortened: as §1

[5] = compound: CN(C)CC(=O)Nc1ccc2[nH]c(=O)c3ccccc3c2c1
Procedure, shortened: as §1

rosiglitazone = compound: CN(CCOC1=CC=C(C=C1)C[C@H]2C(=O)NC(=O)S2)C3=CC=CC=N3 (racemic) [rosiglitazone]
Procedure, shortened: as §1

[6] = compound: CN1C2=C(C3=C1C(=O)N(N=C3)CC4=CC(=CC=C4)N)SC(=C2)S(=O)C
Procedure, shortened: as §1

[7] = compound: CN1CCC(CNc2ccc3ncc(-c4cccc(OC(F)(F)F)c4)n3n2)CC1
Procedure, shortened: as §1

saracatinib = compound: CN1CCN(CCOc2cc(OC3CCOCC3)c3c(Nc4c(Cl)ccc5c4OCO5)ncnc3c2)CC1 [saracatinib]
Procedure, shortened: as §1

sotrastaurin = compound: CN1CCN(c2nc(C3=C(c4c[nH]c5ccccc45)C(=O)NC3=O)c3ccccc3n2)CC1 [sotrastaurin]
Procedure, shortened: as §1

alvocidib = compound: CN1CC[C@H](c2c(O)cc(O)c3c(=O)cc(-c4ccccc4Cl)oc23)[C@H](O)C1 [alvocidib]
Procedure, shortened: as §1

Tubastatin A = compound: CN1CCc2c(c3ccccc3n2Cc2ccc(C(=O)NO)cc2)C1 [Tubastatin A]
Procedure, shortened: as §1

[8] = compound: CNC(=O)C1=CC=CC=C1NC2=NC(=NC=C2Cl)NC3=C(C=C(C=C3)N4CCOCC4)OC
Procedure, shortened: as §1

defactinib = compound: CNC(=O)c1ccc(Nc2ncc(C(F)(F)F)c(NCc3nccnc3N(C)S(C)(=O)=O)n2)cc1 [defactinib]
Procedure, shortened: as §1

rucaparib = compound: CNCc1ccc(-c2[nH]c3cc(F)cc4c3c2CCNC4=O)cc1 [rucaparib]
Procedure, shortened: as §1

[9] = compound: CNc1nc(-c2ccc3c(N)n[nH]c3c2)cc(N2C[C@@H](C(=O)NC3CCCCC3)CC[C@H]2C)n1
Procedure, shortened: as §1

encorafenib = compound: COC(=O)N[C@@H](C)CNc1nccc(-c2cn(C(C)C)nc2-c2cc(Cl)cc(NS(C)(=O)=O)c2F)n1 [encorafenib]
Procedure, shortened: as §1

[10] = compound: COC(=O)[C@H](CCSC)NC(=O)C1=C(C=C(C=C1)NC[C@H](CS)N)C2=CC=CC=C2
Procedure, shortened: as §1

Measured: log2 fold change

ATP5MF (UniProt P56134)
inactive: [1] 0.041 | volasertib 0.052 | [2] -0.021 | epoxomicin -0.037 | [3] -0.105 | [4] -0.082 | [5] -0.003 | rosiglitazone -0.008 | [6] 0 | [7] 0.001 | saracatinib 0.003 | sotrastaurin 0.038 | alvocidib -0.021 | Tubastatin A -0.053 | [8] -0.033 | defactinib -0.014 | rucaparib 0.008 | [9] -0.06 | encorafenib -0.019 | [10] 0.003

ATG16L1 (UniProt Q676U5)
inactive: [1] -0.066 | volasertib 0.032 | [2] 0.013 | epoxomicin -0.018 | [3] 0.024 | [4] -0.027 | [5] 0 | rosiglitazone 0.041 | [6] -0.041 | [7] -0.046 | saracatinib 0.063 | sotrastaurin 0.016 | alvocidib -0.029 | Tubastatin A -0.063 | [8] 0.018 | defactinib -0.043 | rucaparib -0.001 | [9] -0.057 | encorafenib -0.013 | [10] 0.024

ASMTL (UniProt O95671)
inactive: [1] 0.106 | volasertib -0.143 | [2] -0.013 | epoxomicin -0.22 | [3] -0.072 | [4] -0.076 | [5] -0.038 | rosiglitazone -0.015 | [6] 0.006 | [7] -0.047 | saracatinib -0.082 | sotrastaurin -0.007 | alvocidib 0.013 | Tubastatin A 0.049 | [8] -0.057 | defactinib -0.083 | rucaparib -0.035 | [9] 0.089 | encorafenib 0.088 | [10] -0.16

ATP11C (UniProt Q8NB49)
inactive: [1] 0.089 | volasertib 0.022 | [2] 0.012 | epoxomicin 0.007 | [3] 0.036 | [4] -0.071 | [5] 0.042 | rosiglitazone -0.021 | [6] -0.104 | [7] -0.075 | saracatinib 0.018 | sotrastaurin -0.021 | alvocidib -0.014 | Tubastatin A -0.028 | [8] 0.002 | defactinib -0.016 | rucaparib -0.016 | [9] 0.036 | encorafenib 0.005 | [10] 0.005

ARRB1 (UniProt P49407)
inactive: [1] -0.01 | volasertib -0.023 | [2] 0.016 | epoxomicin -0.021 | [3] 0.017 | [4] -0.073 | [5] -0.01 | rosiglitazone 0 | [6] -0.079 | [7] 0.068 | saracatinib 0.022 | sotrastaurin 0.02 | alvocidib -0.105 | Tubastatin A -0.02 | [8] -0.017 | defactinib -0.073 | rucaparib -0.016 | [9] 0.006 | encorafenib 0.004 | [10] 0.002

ATF2 (UniProt P15336)
inactive: [1] 0.313 | volasertib -0.009 | [2] -0.267 | epoxomicin -0.109 | [3] 0.036 | [4] 0.028 | [5] 0.1 | rosiglitazone -0.018 | [6] 0.033 | [7] 0.187 | saracatinib 0.333 | sotrastaurin 0.002 | alvocidib 0.049 | Tubastatin A 0.137 | [8] 0.015 | defactinib -0.209 | rucaparib -0.247 | [9] 0.072 | encorafenib 0.162 | [10] 0.13

ASNA1 (UniProt O43681)
inactive: [1] 0.01 | volasertib 0.098 | [2] -0.026 | epoxomicin -0.011 | [3] 0.06 | [4] 0.038 | [5] -0.013 | rosiglitazone -0.017 | [6] -0.038 | [7] -0.007 | saracatinib 0.025 | sotrastaurin -0.014 | alvocidib -0.015 | Tubastatin A -0.068 | [8] -0.018 | defactinib -0.005 | rucaparib -0.037 | [9] -0.016 | encorafenib 0.001 | [10] 0.017

ARMT1 (UniProt Q9H993)
inactive: [1] -0.206 | volasertib -0.411 | [2] 0.254 | epoxomicin 0.028 | [3] -0.062 | [4] -0.078 | [5] 0.125 | rosiglitazone 0.093 | [6] 0.2 | [7] -0.281 | saracatinib -0.217 | sotrastaurin -0.396 | alvocidib -0.003 | Tubastatin A 0.273 | [8] -0.075 | defactinib -0.014 | rucaparib 0.208 | [9] 0.121 | encorafenib 0.196 | [10] -0.103

ATP2B1 isoform 1 (UniProt P20020)
inactive: [1] 0.122 | volasertib 0.028 | [2] -0.031 | epoxomicin -0.019 | [3] -0.004 | [4] -0.053 | [5] -0.044 | rosiglitazone 0.022 | [6] -0.083 | [7] 0.157 | saracatinib 0.019 | sotrastaurin 0.036 | alvocidib 0.006 | Tubastatin A -0.018 | [8] -0.033 | defactinib -0.049 | rucaparib -0.041 | [9] 0.023 | encorafenib 0.001 | [10] 0.018

ARL15 (UniProt Q9NXU5)
inactive: [1] -0.114 | volasertib -0.052 | [2] 0.01 | epoxomicin 0.019 | [3] -0.023 | [4] -0.029 | [5] 0.066 | rosiglitazone -0.022 | [6] -0.016 | [7] 0 | saracatinib 0.011 | sotrastaurin -0.035 | alvocidib -0.117 | Tubastatin A 0.005 | [8] -0.089 | defactinib -0.03 | rucaparib 0.084 | [9] -0.026 | encorafenib 0.009 | [10] -0.039

ATPAF1 (UniProt Q5TC12)
inactive: [1] 0.009 | volasertib -0.122 | [2] 0.002 | epoxomicin 0.08 | [3] 0.039 | [4] -0.024 | [5] -0.005 | rosiglitazone -0.021 | [6] -0.057 | [7] 0.076 | saracatinib 0.042 | sotrastaurin -0.009 | alvocidib -0.055 | Tubastatin A -0.019 | [8] -0.033 | defactinib -0.094 | rucaparib 0.021 | [9] -0.08 | encorafenib -0.005 | [10] 0.01

ATP5F1C (UniProt P36542)
inactive: [1] 0.02 | volasertib 0.045 | [2] -0.03 | epoxomicin 0.004 | [3] 0.023 | [4] -0.014 | [5] -0.019 | rosiglitazone -0.004 | [6] -0.025 | [7] 0.087 | saracatinib 0 | sotrastaurin 0.049 | alvocidib 0.019 | Tubastatin A -0.021 | [8] 0.013 | defactinib 0.03 | rucaparib -0.01 | [9] -0.05 | encorafenib -0.037 | [10] 0.022

ASPSCR1 isoform 2 (UniProt Q9BZE9)
inactive: [1] 0.037 | volasertib -0.084 | [2] 0.071 | epoxomicin 0.002 | [3] -0.048 | [4] -0.01 | [5] 0.038 | rosiglitazone -0.019 | [6] -0.006 | [7] 0.04 | saracatinib -0.031 | sotrastaurin -0.033 | alvocidib 0.045 | Tubastatin A 0.023 | [8] 0.03 | defactinib -0.059 | rucaparib 0.002 | [9] 0.011 | encorafenib 0.107 | [10] -0.004

Copied from the results shown (two entries):
ATPAF1 (UniProt Q5TC12)
inactive: [1] 0.009 | volasertib -0.122 | [2] 0.002 | epoxomicin 0.08 | [3] 0.039 | [4] -0.024 | [5] -0.005 | rosiglitazone -0.021 | [6] -0.057 | [7] 0.076 | saracatinib 0.042 | sotrastaurin -0.009 | alvocidib -0.055 | Tubastatin A -0.019 | [8] -0.033 | defactinib -0.094 | rucaparib 0.021 | [9] -0.08 | encorafenib -0.005 | [10] 0.01

ATP5F1C (UniProt P36542)
inactive: [1] 0.02 | volasertib 0.045 | [2] -0.03 | epoxomicin 0.004 | [3] 0.023 | [4] -0.014 | [5] -0.019 | rosiglitazone -0.004 | [6] -0.025 | [7] 0.087 | saracatinib 0 | sotrastaurin 0.049 | alvocidib 0.019 | Tubastatin A -0.021 | [8] 0.013 | defactinib 0.03 | rucaparib -0.01 | [9] -0.05 | encorafenib -0.037 | [10] 0.022

(continued)

ARL8A (UniProt Q96BM9)
inactive: [1] -0.037 | volasertib 0.043 | [2] 0.017 | epoxomicin -0.008 | [3] -0.024 | [4] 0.005 | [5] -0.043 | rosiglitazone -0.003 | [6] 0 | [7] -0.127 | saracatinib -0.002 | sotrastaurin -0.105 | alvocidib -0.01 | Tubastatin A 0.117 | [8] -0.043 | defactinib 0.004 | rucaparib 0.045 | [9] -0.007 | encorafenib -0.071 | [10] 0.007

ATP5MPL (UniProt P56378)
inactive: [1] 0.137 | volasertib 0.087 | [2] -0.034 | epoxomicin 0.235 | [3] 0.061 | [4] -0.041 | [5] 0.017 | rosiglitazone 0.006 | [6] -0.006 | [7] 0.156 | saracatinib 0.08 | sotrastaurin -0.117 | alvocidib -0.099 | Tubastatin A -0.052 | [8] 0.02 | defactinib -0.068 | rucaparib -0.04 | [9] -0.073 | encorafenib -0.002 | [10] 0.049

ARL8B (UniProt Q9NVJ2)
inactive: [1] -0.082 | volasertib -0.034 | [2] -0.01 | epoxomicin -0.002 | [3] 0.055 | [4] 0.013 | [5] 0.001 | rosiglitazone -0.032 | [6] -0.033 | [7] -0.042 | saracatinib 0.042 | sotrastaurin -0.001 | alvocidib 0.029 | Tubastatin A -0.01 | [8] -0.017 | defactinib -0.021 | rucaparib -0.009 | [9] -0.036 | encorafenib -0.011 | [10] 0.023
